# Measured values reported in ChEMBL document CHEMBL5335864 (ACS Med Chem Lett, 2024).
# Assay: physchem
# Details: octanol/water, pH 7.4
structure (smiles),measurement,value
FC(F)(F)c1nc(-c2ccc(CCN3CCC(Nc4nc5ncccc5[nH]4)CC3)cc2)no1,logD,6.71
FC(F)(F)c1nc(-c2ccc(CCN3CCC(Nc4nc5cnccc5[nH]4)CC3)cc2)no1,logD,8.59
